Results from publication doi:10.1101/2025.09.25.678692.
Where two headings read alike, the source gives them in different places. Results are given in words; binding and its absence hold for the method and conditions named. Binding seen in cells or lysates may run through a third protein. Some results given as binding are weak or reduced against the parent protein; the word gives no strength. Where a sequence is shown, tags or fusion partners need not be part of it.

T1: erlin-1-NT (N1-30)-nSURF (human) (UniProt O75477)
T1 sequence: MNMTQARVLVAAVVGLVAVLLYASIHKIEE

T2: full-length (FL) erlin-2-cSURF (human) (UniProt O94905)
T2 sequence: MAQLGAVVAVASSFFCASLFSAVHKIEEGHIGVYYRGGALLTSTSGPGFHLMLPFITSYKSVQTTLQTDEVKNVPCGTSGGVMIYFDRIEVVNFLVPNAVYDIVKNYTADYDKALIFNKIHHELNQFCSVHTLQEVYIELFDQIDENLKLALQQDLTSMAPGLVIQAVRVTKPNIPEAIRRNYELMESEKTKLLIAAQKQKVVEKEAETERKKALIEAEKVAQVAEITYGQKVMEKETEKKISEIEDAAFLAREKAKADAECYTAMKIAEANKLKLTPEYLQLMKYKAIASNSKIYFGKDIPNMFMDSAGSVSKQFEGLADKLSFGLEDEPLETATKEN

T3: full-length (FL) erlin-1-nSURF (human) (UniProt O75477)
T3 sequence: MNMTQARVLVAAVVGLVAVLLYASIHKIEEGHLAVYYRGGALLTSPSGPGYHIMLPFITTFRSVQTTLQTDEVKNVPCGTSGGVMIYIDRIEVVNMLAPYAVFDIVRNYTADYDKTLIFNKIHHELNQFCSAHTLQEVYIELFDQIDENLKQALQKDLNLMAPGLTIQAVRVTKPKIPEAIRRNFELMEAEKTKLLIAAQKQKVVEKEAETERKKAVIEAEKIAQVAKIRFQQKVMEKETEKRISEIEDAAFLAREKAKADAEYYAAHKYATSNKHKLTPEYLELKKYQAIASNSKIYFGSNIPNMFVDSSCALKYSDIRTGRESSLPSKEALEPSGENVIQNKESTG


Key:
Test in all cases: split reporter
[1] = target: CYP1A2-NT (N1-33) signal-anchor subdomain tagged with a split SURF reporter (rabbit) (UniProt P00187)
[2] = target: T1, erlin-1-NT (N1-30)-nSURF (human)
[3] = target: T2, full-length (FL) erlin-2-cSURF (human)
[4] = target: T3, full-length (FL) erlin-1-nSURF (human)
[5] = target: full-length (FL) rabbit liver CYP1A2 tagged with a split SURF reporter (CYP1A2-cSURF; CYP1A2-nSURF) (rabbit) (UniProt P00187)
[6] = target: T3, full-length (FL) erlin-1-nSURF (human); remark: listed apart in the source

binding [1]	binding [2]	binding [3]	binding [4]	binding [5]	binding [6]	Binder
binds	binds	–	–	–	–	MAMSPAAPLSVTELLLVSAVFCLVFWAVRASRP (domain or fragment, UniProt P00187 1-33) [CYP1A2-NT (N1-33) signal-anchor subdomain tagged with a split SURF reporter]
–	–	binds	binds	binds	binds	full-length (FL) rabbit liver CYP1A2 tagged with a split SURF reporter (CYP1A2-cSURF; CYP1A2-nSURF) (enzyme, UniProt P00187 1-516) MAMSPAAPLSVTELLLVSAVFCLVFWAVRASRPKVPKGLKRLPGPWGWPLLGHLLTLGKNPHVALARLSRRYGDVFQIRLGSTPVVVLSGLDTIKQALVRQGDDFKGRPDLYSSSFITEGQSMTFSPDSGPVWAARRRLAQDSLKSFSIASNPASSSSCYLEEHVSQEAENLIGRFQELMAAVGRFDPYSQLVVSAARVIGAMCFGRRFPQGSEEMLDVVRNSSKFVETASSGSPVDFFPILRYLPNRPLQRFKDFNQRFLRFLQKTVREHYEDFDRNSIQDITGALFKHSEKNSKANSGLIPQEKIVNLVNDIFGAGFDTITTALSWSLMYLVTNPRRQRKIQEELDAVVGRARQPRLSDRPQLPYLEAFILELFRHTSFVPFTIPHSTTRDTTLNGFHIPKECCIFINQWQINHDPQLWGDPEEFRPERFLTADGAAINKPLSEKVTLFGLGKRRCIGETLARWEVFLFLAILLQRLEFSVPPGVPVDLTPIYGLTMKHPRCEHVQARPRFSDQ
–	–	–	no binding	–	no binding	c-SURF-tagged ornithine decarboxylase 1 (ODC1-cSURF) (enzyme, UniProt P11926 1-461) MNNFGNEEFDCHFLDEGFTAKDILDQKINEVSSSDDKDAFYVADLGDILKKHLRWLKALPRVTPFYAVKCNDSKAIVKTLAATGTGFDCASKTEIQLVQSLGVPPERIIYANPCKQVSQIKYAANNGVQMMTFDSEVELMKVARAHPKAKLVLRIATDDSKAVCRLSVKFGATLRTSRLLLERAKELNIDVVGVSFHVGSGCTDPETFVQAISDARCVFDMGAEVGFSMYLLDIGGGFPGSEDVKLKFEEITGVINPALDKYFPSDSGVRIIAEPGRYYVASAFTLAVNIIAKKIVLKEQTGSDDEDESSEQTFMYYVNDGVYGSFNCILYDHAHVKPLLQKRPKPDEKYYSSSIWGPTCDGLDRIVERCDLPEMHVGDWMLFENMGAYTVAAASTFNGFQRPTIYYVMSGPAWQLMQQFQNPDFPPEVEEQDASTLPVSCAWESGMKRHRAACASASINV
